± gives the standard deviation. This is a selection; strong and weak results do not stand in their true shares. Many of these values have a large error. The list shows a part of the results.
Key:
[1] = test system: MILI (PIWIL2) piRISC loaded with L1MC piRNA (26 nt); test: pre-steady-state target cleavage rate (min^-1); higher = faster piRNA-guided slicing of the target; details: guide: L1MC piRNA 5'p-UAACUAAAUACUAUGCAAGCUGUAGG
Summary of the method: (§1)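 Sequencing of uncleaved targets, normalised to depth and to weakly complementary targets, was the readout of this Cleave-'n-Seq assay. A transcribed, DNA-blocked target RNA library (0.1 nM) was mixed with 1 nM active affinity-purified piRISC carrying one synthetic guide, with or without 500 nM GTSF1 partner protein, in HEPES–potassium acetate buffer at 33 °C for 0–8 or 0–960 min. Three trials were pooled, k3 was capped at 0.0001 min^-1, and a burst-and-steady-state fit gave the pre-steady-state cleavage rate.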

[2] = test system: EfPiwi piRISC loaded with L1MC piRNA (26 nt); test: pre-steady-state target cleavage rate (min^-1); guide: L1MC piRNA 5'p-UAACUAAAUACUAUGCAAGCUGUAGG; MIWI and MILI are mouse PIWI proteins and EfPiwi is from a freshwater sponge; tags in brackets are library labels; higher = faster piRNA-guided slicing of the target
Summary of the method: as §1

[3] = auxiliary factor: 500 nM mouse GTSF1
[4] = auxiliary factor: none (no GTSF1)
[5] = auxiliary factor: 500 nM Ephydatia muelleri Gtsf1
[6] = auxiliary factor: none (no Gtsf1)

| Sequence | pre-steady-state target cleavage rate [1, 3] | pre-steady-state target cleavage rate [1, 4] | pre-steady-state target cleavage rate [2, 5] | pre-steady-state target cleavage rate [2, 6] |
| --- | --- | --- | --- | --- |
| UCCUGGAACAGCUUGCAUAGUUUUUAGAAA | 0.0191 ± 0.007 | 0.0011 ± 0.005 | 0.00413 ± 0.0021 | 0.000435 ± 0.014 |
| UCCUGGGACAGCUUGCAUAGUAUUUAGUUA | 0.231 ± 0.024 | 0.0138 ± 0.0034 | 0.0163 ± 0.0059 | 0.00525 ± 0.0051 |
| UCCUGGAUGUGCUUGCAUAGUUAUUAGUUA | 0.00903 ± 0.0055 | 0.00639 ± 0.0025 | 0.00199 ± 0.0063 | 0.000303 ± 0.034 |
| UCCUGGUAGAGCUUGCUUAGUAUUUAGUUA | 0.226 ± 0.012 | 0.00793 ± 0.0029 | 0.00885 ± 0.0045 | 0.0015 ± 0.008 |
| UCCUGGAUGUGCUUGCAUAGUUUUUAGUUA | 0.0127 ± 0.0066 | 0.00796 ± 0.0026 | 0.00538 ± 0.0024 | 0.00138 ± 0.0088 |
| UCCUGGAUGUCCUUGCAUGGUAUUUAGUUA | 0.0346 ± 0.011 | 0.00814 ± 0.0026 | 0.00143 ± 0.0035 | 0.000538 ± 0.01 |
| UCCUGGAUGAGCUUGCUUAGUAUUUAGAAA | 0.0548 ± 0.017 | 0.00171 ± 0.0037 | 0.00188 ± 0.0023 | 0.000275 ± 0.024 |
| UCCUGGAUGUCGUUGCAUAGUAUUGAGUUA | 0.0312 ± 0.011 | 0.00363 ± 0.0032 | 0.000515 ± 0.0088 | 0.000205 ± 0.037 |
| UCCUGCUACAGCUUGCAAUCUAUUUAGUUA | 0.0303 ± 0.0068 | 0.00243 ± 0.0019 | 0.00144 ± 0.0044 | 0.000112 ± 0.023 |
| UCCUGCUAGAGCAUGCAUAGUAUUUAGUUA | 0.226 ± 0.018 | 0.00708 ± 0.0024 | 0.00618 ± 0.0015 | 0.000253 ± 0.016 |
| UCCUGGAUGUCCUUGCAUCGUAUUUAGUUA | 0.0423 ± 0.015 | 0.00482 ± 0.0021 | 0.00301 ± 0.0036 | 0.000337 ± 0.013 |
| UCCUGCAACAGCUUGCAUAGUAUUUAGAUA | 0.125 ± 0.024 | 0.00191 ± 0.0051 | 0.00372 ± 0.002 | 0.00035 ± 0.02 |
| UCCUGGAUGUCGAUGCAUAGAUUUUAGUUA | 0.0015 ± 0.0074 | 0.00123 ± 0.0059 | 0.000206 ± 0.019 | 0.00013 ± 0.05 |
| UCCUGGAUCAGCUUGCAUAGAAUUUAGUAA | 0.0373 ± 0.011 | 0.000899 ± 0.0061 | 0.00215 ± 0.003 | 0.000349 ± 0.017 |
| UCCUGGUACAGCUUGCUUAGUAUUAAGUUA | 0.163 ± 0.041 | 0.00213 ± 0.0036 | 0.00311 ± 0.0027 | 0.00125 ± 0.0087 |
| UCCUGGUACAGCUUCCUUAGUAUUUAGUUA | 0.288 ± 0.052 | 0.00854 ± 0.0031 | 0.00137 ± 0.0038 | 0.000447 ± 0.016 |
| UCCUGGAACAGCUUGCAUAGUUUUUUGUUA | 0.0493 ± 0.014 | 0.00203 ± 0.0037 | 0.00325 ± 0.0013 | 0.00115 ± 0.0086 |
| UCCUGGAUGUCGUAGCAUUGUAUUUAGUUA | 0.00325 ± 0.0044 | 0.000524 ± 0.009 | 0.000173 ± 0.033 | 0.000358 ± 0.022 |
| UCCUGCUACAGCUUGCAUAGUUUUAAGUUA | 0.0676 ± 0.015 | 0.00193 ± 0.0034 | 0.00341 ± 0.0017 | 0.000699 ± 0.0082 |
| UCCUGGAACAGCUUGGAAAGUAUUUAGUUA | 0.125 ± 0.0077 | 0.00969 ± 0.0023 | 0.0164 ± 0.0053 | 0.000238 ± 0.041 |
| UCCUGGAUGUCGAAGCAUACGUAUUUAGUUA | 0.000337 ± 0.027 | 0.000239 ± 0.02 | 0.000161 ± 0.034 | 0.000326 ± 0.021 |
| UCCUGGAACAGGUUGCAUAGUAUUUAGAUA | 0.136 ± 0.025 | 0.00245 ± 0.0031 | 0.00362 ± 0.0019 | 0.000263 ± 0.027 |

Some of the entries so far, in CSV form.
Sequence,"pre-steady-state target cleavage rate [1, 3]","pre-steady-state target cleavage rate [1, 4]","pre-steady-state target cleavage rate [2, 5]","pre-steady-state target cleavage rate [2, 6]"
UCCUGGUAGAGCUUGCUUAGUAUUUAGUUA,0.226 ± 0.012,0.00793 ± 0.0029,0.00885 ± 0.0045,0.0015 ± 0.008
UCCUGGAUGUGCUUGCAUAGUUUUUAGUUA,0.0127 ± 0.0066,0.00796 ± 0.0026,0.00538 ± 0.0024,0.00138 ± 0.0088

— the supplement of paper PMC10338343
